# Assay results reported in article doi:10.1101/2024.07.23.604837.
# Amino acid sequences for entries named in this document (tags omitted).
# UniProt O95639: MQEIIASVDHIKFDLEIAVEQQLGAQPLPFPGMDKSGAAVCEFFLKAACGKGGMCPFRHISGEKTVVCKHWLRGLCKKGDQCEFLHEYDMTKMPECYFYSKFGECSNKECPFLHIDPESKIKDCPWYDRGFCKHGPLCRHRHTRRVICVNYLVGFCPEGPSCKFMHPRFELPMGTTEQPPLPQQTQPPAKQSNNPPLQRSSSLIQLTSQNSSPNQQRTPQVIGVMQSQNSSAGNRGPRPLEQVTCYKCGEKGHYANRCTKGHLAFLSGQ
# Read-outs that look alike come from different tables or passages of the source. No constants are given. Whether binding was seen depends on the method and setting. Binding seen in cells or lysates may run through a third protein. Some entries that bind do so weakly or less than the wild type. For some of these results: Sequences can lack the tags named with a protein.
# T1: FLAG-tagged ZFC3H1 N-terminal region (residues 1-990) (UniProt O60293)
# T1 sequence: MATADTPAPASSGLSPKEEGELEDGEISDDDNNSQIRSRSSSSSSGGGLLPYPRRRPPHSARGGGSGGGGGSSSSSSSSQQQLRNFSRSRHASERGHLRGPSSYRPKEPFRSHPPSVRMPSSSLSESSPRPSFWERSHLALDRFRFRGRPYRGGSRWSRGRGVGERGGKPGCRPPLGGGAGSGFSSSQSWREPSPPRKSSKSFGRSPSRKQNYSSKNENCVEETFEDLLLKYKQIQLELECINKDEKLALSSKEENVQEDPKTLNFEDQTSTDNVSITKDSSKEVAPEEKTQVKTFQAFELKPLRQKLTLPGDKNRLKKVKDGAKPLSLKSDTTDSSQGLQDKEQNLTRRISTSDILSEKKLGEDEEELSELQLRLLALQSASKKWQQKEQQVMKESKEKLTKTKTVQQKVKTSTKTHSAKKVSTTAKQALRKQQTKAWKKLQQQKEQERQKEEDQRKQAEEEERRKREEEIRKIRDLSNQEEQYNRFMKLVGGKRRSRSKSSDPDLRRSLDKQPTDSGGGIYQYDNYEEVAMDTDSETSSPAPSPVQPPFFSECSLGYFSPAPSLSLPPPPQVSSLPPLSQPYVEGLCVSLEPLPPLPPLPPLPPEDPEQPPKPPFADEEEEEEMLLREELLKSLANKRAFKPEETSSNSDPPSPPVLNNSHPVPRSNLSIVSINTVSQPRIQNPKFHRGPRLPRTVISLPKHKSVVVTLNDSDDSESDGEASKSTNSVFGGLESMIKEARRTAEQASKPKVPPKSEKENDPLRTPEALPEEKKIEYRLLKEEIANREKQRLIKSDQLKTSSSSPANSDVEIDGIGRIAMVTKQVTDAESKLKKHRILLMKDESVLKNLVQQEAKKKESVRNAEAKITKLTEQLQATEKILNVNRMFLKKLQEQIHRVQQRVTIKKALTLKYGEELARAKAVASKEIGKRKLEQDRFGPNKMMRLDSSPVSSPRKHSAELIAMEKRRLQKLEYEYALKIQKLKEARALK
# T2: FLAG-tagged ZFC3H1, full length, O60293
# T2 chain: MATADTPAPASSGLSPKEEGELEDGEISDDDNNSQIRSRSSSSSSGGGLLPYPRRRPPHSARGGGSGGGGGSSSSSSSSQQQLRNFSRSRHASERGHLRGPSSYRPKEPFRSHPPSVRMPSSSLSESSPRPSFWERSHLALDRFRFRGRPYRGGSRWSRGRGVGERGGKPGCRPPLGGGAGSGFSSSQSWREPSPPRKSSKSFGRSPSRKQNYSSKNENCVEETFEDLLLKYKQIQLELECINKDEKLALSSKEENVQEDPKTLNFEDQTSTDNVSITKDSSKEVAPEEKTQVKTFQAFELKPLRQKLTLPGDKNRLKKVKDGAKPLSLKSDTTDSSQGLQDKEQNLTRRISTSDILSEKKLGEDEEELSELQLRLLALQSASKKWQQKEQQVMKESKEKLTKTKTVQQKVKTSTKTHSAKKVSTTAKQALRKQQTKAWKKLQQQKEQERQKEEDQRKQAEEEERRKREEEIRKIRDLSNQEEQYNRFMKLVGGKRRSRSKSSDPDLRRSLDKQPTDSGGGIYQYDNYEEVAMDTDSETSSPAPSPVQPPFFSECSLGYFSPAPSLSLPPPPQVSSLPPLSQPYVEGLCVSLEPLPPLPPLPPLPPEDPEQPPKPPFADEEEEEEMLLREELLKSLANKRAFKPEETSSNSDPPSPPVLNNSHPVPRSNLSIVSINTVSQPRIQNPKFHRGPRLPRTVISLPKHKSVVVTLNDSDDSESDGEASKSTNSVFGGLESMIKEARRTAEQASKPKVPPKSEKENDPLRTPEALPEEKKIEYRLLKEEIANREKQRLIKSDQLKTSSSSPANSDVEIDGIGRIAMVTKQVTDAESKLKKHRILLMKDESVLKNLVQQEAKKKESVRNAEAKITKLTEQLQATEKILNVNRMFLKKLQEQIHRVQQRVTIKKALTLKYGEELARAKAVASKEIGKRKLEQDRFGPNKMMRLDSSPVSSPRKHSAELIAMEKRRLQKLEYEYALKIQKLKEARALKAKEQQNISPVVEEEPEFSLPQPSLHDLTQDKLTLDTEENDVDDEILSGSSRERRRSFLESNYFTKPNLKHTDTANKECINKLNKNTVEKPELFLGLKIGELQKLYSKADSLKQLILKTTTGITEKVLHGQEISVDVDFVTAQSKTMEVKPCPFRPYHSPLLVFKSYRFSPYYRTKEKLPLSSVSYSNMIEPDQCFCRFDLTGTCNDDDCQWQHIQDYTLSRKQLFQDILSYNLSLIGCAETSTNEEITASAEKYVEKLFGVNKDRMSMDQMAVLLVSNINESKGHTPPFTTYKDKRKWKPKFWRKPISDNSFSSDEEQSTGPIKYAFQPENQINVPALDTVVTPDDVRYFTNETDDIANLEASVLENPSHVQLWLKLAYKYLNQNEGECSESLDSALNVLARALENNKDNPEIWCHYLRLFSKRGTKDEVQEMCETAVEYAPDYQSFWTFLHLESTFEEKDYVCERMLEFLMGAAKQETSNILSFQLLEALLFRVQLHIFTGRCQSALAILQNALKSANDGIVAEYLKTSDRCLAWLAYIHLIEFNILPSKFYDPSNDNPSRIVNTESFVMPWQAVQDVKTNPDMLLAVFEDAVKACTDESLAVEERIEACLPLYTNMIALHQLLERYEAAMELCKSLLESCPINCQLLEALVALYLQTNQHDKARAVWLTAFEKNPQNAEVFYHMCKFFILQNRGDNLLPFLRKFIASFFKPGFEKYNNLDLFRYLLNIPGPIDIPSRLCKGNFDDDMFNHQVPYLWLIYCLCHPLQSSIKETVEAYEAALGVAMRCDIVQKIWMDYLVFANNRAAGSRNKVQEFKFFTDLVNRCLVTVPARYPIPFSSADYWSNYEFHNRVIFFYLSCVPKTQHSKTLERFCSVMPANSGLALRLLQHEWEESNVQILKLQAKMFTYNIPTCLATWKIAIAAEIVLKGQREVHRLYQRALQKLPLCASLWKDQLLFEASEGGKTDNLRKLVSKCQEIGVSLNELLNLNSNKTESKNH
# B1: PABPN1, Q86U42 1-306 (protein)
# chain: MAAAAAAAAAAGAAGGRGSGPGRRRHLVPGAGGEAGEGAPGGAGDYGNGLESEELEPEELLLEPEPEPEPEEEPPRPRAPPGAPGPGPGSGAPGSQEEEEEPGLVEGDPGDGAIEDPELEAIKARVREMEEEAEKLKELQNEVEKQMNMSPPPGNAGPVIMSIEEKMEADARSIYVGNVDYGATAEELEAHFHGCGSVNRVTILCDKFSGHPKGFAYIEFSDKESVRTSLALDESLFRGRQIKVIPKRTNRPGISTTDRGFPRARYRARTTNYNSSRSRFYSGFNSRPRGRVYRGRARATSWYSPY
# B2: CPSF100 (protein, UniProt Q9P2I0 1-782)
# chain: MTSIIKLTTLSGVQEESALCYLLQVDEFRFLLDCGWDEHFSMDIIDSLRKHVHQIDAVLLSHPDPLHLGALPYAVGKLGLNCAIYATIPVYKMGQMFMYDLYQSRHNTEDFTLFTLDDVDAAFDKIQQLKFSQIVNLKGKGHGLSITPLPAGHMIGGTIWKIVKDGEEEIVYAVDFNHKREIHLNGCSLEMLSRPSLLITDSFNATYVQPRRKQRDEQLLTNVLETLRGDGNVLIAVDTAGRVLELAQLLDQIWRTKDAGLGVYSLALLNNVSYNVVEFSKSQVEWMSDKLMRCFEDKRNNPFQFRHLSLCHGLSDLARVPSPKVVLASQPDLECGFSRDLFIQWCQDPKNSIILTYRTTPGTLARFLIDNPSEKITEIELRKRVKLEGKELEEYLEKEKLKKEAAKKLEQSKEADIDSSDESDIEEDIDQPSAHKTKHDLMMKGEGSRKGSFFKQAKKSYPMFPAPEERIKWDEYGEIIKPEDFLVPELQATEEEKSKLESGLTNGDEPMDQDLSDVPTKCISTTESIEIKARVTYIDYEGRSDGDSIKKIINQMKPRQLIIVHGPPEASQDLAECCRAFGGKDIKVYMPKLHETVDATSETHIYQVRLKDSLVSSLQFCKAKDAELAWIDGVLDMRVSKVDTGVILEEGELKDDGEDSEMQVEAPSDSSVIAQQKAMKSLFGDDEKETGEESEIIPTLEPLPPHEVPGHQSVFMNEPRLSDFKQVLLREGIQAEFVGGVLVCNNQVAVRRTETGRIGLEGCLCQDFYRIRDLLYEQYAIV
# B3: CPSF73 (protein, UniProt Q9UKF6 1-684)
# chain: MSAIPAEESDQLLIRPLGAGQEVGRSCIILEFKGRKIMLDCGIHPGLEGMDALPYIDLIDPAEIDLLLISHFHLDHCGALPWFLQKTSFKGRTFMTHATKAIYRWLLSDYVKVSNISADDMLYTETDLEESMDKIETINFHEVKEVAGIKFWCYHAGHVLGAAMFMIEIAGVKLLYTGDFSRQEDRHLMAAEIPNIKPDILIIESTYGTHIHEKREEREARFCNTVHDIVNRGGRGLIPVFALGRAQELLLILDEYWQNHPELHDIPIYYASSLAKKCMAVYQTYVNAMNDKIRKQININNPFVFKHISNLKSMDHFDDIGPSVVMASPGMMQSGLSRELFESWCTDKRNGVIIAGYCVEGTLAKHIMSEPEEITTMSGQKLPLKMSVDYISFSAHTDYQQTSEFIRALKPPHVILVHGEQNEMARLKAALIREYEDNDEVHIEVHNPRNTEAVTLNFRGEKLAKVMGFLADKKPEQGQRVSGILVKRNFNYHILSPCDLSNYTDLAMSTVKQTQAIPYTGPFNLLCYQLQKLTGDVEELEIQEKPALKVFKNITVIQEPGMVVLEWLANPSNDMYADTVTTVILEVQSNPKIRKGAVQKVSKKLEMHVYSKRLEIMLQDIFGEDCVSVKDDSILSVTVDGKTANLNLETRTVECEEGSEDDESLREMVELAAQRLYEALTPVH
# Columns and labels:
# Experiment in all cases: co-IP
# [1] = target: FLAG-tagged ZFC3H1, full length (UniProt O60293)
# [2] = target: FLAG-tagged ZFC3H1, full length (UniProt O60293); remark: listed apart in the source
# [3] = target: T1, FLAG-tagged ZFC3H1 N-terminal region (residues 1-990)
# [4] = target: T2, FLAG-tagged ZFC3H1, full length, O60293; settings: remark: other sources report otherwise
# [5] = target: FLAG-tagged ZFC3H1, full length (UniProt O60293); remark: listed apart in the source
# [6] = target: T1, FLAG-tagged ZFC3H1 N-terminal region (residues 1-990); remark: listed apart in the source
Molecule,binding [1],binding [2],binding [3],binding [4],binding [5],binding [6]
CPSF30 (from UniProt O95639 1-269),binds weakly,binds weakly,binds,,,
B1,,,,binds,,
B2,binds weakly,,,,binds weakly,binds
B3,binds weakly,,,,binds weakly,binds
